# Measured values reported in patent EP0637237B1, “CALCIUM RECEPTOR-ACTIVE MOLECULES” (BRIGHAM AND WOMEN'S HOSPITAL, INC., priority 1993, dated 1994).
# Sequences of proteins named here, by UniProt entry; tags and fusion partners are left off. Residues count along the entry.
# UniProt P35384, 20-1085 limits assumed: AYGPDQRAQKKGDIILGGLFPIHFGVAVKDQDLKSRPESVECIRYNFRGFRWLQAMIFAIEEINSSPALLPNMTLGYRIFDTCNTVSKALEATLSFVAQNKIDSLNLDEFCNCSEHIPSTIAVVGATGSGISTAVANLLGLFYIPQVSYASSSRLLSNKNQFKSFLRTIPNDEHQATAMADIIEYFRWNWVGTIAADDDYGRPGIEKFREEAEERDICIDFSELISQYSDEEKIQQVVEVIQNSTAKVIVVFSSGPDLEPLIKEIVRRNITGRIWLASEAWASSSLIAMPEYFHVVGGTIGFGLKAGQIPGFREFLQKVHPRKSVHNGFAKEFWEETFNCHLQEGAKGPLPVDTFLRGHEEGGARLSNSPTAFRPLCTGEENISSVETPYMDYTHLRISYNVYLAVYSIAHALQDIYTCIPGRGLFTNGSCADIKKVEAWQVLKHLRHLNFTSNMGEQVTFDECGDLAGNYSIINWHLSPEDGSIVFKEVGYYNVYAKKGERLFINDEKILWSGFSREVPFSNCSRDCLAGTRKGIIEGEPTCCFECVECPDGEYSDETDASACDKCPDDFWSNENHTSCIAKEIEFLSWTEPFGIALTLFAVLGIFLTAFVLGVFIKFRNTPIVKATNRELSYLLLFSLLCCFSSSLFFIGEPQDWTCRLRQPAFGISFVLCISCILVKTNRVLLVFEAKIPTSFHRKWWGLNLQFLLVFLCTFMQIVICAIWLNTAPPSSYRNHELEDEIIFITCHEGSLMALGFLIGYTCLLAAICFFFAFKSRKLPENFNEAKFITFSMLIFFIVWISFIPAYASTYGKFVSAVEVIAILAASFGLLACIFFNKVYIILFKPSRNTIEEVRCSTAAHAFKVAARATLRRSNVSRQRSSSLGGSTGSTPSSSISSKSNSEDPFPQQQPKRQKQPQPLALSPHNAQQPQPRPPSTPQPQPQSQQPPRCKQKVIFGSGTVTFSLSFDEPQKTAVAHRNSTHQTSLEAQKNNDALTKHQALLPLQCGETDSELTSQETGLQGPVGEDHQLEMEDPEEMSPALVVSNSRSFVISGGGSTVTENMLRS
# Target: parathyroid cell Ca^2+ receptor (Bos taurus, UniProt P35384)
# Assay: Mobilization of intracellular Ca2+ ([Ca2+]i, fura-2) in bovine parathyroid cells
# Format: cell-based
# Conditions: low [Ca2+] 0.5 mM; 200 µM in Fig. 37
structure (smiles),measurement,value
NCCCCCCCCCCCCNC(=O)Cc1ccc(O)cc1O,effect by itself on [Ca2+]i,does not by itself cause any change in [Ca^2+]i; also recorded: caused no change in [Ca^2+]i

# Entries after “also recorded” stand apart in the source; their conditions may differ. Some entries of the source have several records that differ or are many. The other results are left out here. An entry can have further records. The values listed for one entry differ, and nothing given here explains why; dose, time, organism, isomer or construct need not be as stated for each record.
